From patent US9670212B2, “Inhibitors of PI3K-delta and methods of their use and manufacture” (Exelixis, Inc., priority 2010, dated 2017)

Amino acid sequences for entries named in this document (tags omitted).
UniProt O00329, whole entry: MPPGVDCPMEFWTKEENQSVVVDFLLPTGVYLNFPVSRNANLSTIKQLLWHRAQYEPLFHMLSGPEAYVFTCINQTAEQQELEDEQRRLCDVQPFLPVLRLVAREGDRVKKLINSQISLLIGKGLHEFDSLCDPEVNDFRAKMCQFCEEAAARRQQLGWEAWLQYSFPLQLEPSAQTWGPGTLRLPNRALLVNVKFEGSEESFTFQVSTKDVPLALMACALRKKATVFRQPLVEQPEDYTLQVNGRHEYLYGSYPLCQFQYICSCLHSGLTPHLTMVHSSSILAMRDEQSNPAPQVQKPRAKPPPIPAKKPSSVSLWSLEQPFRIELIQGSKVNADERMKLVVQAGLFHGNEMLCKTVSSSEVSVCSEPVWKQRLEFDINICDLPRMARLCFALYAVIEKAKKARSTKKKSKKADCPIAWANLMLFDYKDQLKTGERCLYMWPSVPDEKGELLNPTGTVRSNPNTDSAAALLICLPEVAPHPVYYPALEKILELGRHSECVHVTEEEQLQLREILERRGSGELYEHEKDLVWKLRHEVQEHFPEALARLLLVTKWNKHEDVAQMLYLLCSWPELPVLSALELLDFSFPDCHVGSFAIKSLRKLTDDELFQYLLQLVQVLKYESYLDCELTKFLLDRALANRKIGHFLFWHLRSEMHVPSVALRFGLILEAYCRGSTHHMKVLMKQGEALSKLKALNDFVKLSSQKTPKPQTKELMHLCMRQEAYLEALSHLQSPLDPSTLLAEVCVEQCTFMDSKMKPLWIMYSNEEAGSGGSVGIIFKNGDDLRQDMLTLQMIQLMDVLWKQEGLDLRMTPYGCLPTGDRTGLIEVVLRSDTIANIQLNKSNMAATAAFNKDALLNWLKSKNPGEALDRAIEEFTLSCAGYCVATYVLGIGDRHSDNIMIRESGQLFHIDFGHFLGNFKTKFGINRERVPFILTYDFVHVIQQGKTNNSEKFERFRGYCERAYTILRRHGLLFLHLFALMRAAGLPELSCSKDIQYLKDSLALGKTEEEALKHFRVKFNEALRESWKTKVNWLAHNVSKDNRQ
UniProt P27986, whole entry partner: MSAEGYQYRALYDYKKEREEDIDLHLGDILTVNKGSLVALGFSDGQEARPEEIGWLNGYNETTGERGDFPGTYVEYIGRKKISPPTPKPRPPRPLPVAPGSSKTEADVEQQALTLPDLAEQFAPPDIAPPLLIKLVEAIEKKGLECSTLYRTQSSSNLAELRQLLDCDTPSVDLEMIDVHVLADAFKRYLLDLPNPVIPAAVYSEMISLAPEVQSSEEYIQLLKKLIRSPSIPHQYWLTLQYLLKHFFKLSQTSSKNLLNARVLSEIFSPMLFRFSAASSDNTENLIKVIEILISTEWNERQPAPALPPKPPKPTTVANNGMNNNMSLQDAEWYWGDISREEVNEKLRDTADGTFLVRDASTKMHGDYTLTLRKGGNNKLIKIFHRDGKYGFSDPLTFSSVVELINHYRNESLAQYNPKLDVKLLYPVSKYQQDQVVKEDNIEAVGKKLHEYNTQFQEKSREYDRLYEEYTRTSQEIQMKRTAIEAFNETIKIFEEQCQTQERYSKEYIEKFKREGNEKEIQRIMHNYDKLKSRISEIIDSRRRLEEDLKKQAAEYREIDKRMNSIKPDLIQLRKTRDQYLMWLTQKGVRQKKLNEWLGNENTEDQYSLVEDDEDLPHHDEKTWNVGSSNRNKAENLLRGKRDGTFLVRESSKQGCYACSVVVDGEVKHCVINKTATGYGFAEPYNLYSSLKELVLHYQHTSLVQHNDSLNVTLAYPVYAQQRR

Biological target: PI3K delta (Homo sapiens (Human), UniProt O00329)
Assay: Luciferase-coupled chemiluminescence kinase assay (KinaseGlo, ATP consumption)
Settings: read-out: PI3K Delta Activity IC50

Row | IC50 | SMILES
1 | 500 to 1500 nM | Cc1ccc(S(=O)(=O)N(C)CCN(C)c2nc3c(C)cccc3cc2CNC(=O)c2nccnc2N)cc1
2 | 500 to 1500 nM | COc1ccc(NCc2cc3cccc(C)c3nc2-c2ccccc2Cl)cc1OC

Row | SMILES | IC50
3 | COc1cc(NCc2cc3cccc(C)c3nc2-c2ccccc2Cl)cc(OC)c1 | 500 to 1500 nM

Structures were worked out from names or drawings and are uncertain.
